Measurements as given in publication PMC12436625.
Results are given in words; binding and its absence hold for the method and conditions named. Binding seen in cells or lysates may run through a third protein. Some results given as binding are weak or reduced against the parent protein; the word gives no strength.

By UniProt entry, the sequences of proteins in these tests, tags left out.
UniProt P15337: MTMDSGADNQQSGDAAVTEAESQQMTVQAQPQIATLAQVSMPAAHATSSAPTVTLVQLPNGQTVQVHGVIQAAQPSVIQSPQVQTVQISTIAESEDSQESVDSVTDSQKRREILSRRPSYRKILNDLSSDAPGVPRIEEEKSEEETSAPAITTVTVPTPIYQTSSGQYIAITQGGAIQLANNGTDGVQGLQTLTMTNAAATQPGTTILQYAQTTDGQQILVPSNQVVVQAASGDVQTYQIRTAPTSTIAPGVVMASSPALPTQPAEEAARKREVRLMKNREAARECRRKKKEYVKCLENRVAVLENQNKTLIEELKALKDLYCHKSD
UniProt Q8CHI5: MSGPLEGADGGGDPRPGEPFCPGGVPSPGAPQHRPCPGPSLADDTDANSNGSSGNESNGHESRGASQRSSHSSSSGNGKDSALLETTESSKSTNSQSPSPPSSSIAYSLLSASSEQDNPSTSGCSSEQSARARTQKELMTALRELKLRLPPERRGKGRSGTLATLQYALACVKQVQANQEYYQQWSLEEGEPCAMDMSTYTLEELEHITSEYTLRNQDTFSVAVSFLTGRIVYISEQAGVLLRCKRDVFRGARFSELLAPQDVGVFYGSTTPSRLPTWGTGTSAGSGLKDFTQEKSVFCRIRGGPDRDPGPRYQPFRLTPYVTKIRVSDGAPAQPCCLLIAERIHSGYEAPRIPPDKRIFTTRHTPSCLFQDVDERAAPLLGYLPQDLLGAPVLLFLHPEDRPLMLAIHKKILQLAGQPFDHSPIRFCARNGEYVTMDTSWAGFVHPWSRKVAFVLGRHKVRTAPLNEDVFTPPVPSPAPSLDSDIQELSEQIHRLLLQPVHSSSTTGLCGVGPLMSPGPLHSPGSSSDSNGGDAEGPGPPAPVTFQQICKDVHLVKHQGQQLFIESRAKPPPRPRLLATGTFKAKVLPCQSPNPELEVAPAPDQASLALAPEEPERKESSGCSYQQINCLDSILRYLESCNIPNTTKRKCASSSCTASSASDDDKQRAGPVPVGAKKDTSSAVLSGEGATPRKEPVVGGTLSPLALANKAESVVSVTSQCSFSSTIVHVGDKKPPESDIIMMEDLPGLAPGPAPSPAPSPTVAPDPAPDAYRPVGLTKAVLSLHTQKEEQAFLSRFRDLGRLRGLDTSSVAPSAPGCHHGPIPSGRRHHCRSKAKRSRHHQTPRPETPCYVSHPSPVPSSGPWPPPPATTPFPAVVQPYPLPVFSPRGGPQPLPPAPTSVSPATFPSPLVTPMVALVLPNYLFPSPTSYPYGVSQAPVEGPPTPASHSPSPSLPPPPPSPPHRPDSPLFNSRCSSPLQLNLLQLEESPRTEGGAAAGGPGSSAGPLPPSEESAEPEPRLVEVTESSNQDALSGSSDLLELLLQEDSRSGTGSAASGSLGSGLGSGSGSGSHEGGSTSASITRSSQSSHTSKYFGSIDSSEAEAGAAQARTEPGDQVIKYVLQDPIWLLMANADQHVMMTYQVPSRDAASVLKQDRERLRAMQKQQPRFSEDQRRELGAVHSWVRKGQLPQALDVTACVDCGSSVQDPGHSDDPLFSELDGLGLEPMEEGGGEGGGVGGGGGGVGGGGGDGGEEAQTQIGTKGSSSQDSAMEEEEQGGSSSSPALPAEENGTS
UniProt Q9Z301: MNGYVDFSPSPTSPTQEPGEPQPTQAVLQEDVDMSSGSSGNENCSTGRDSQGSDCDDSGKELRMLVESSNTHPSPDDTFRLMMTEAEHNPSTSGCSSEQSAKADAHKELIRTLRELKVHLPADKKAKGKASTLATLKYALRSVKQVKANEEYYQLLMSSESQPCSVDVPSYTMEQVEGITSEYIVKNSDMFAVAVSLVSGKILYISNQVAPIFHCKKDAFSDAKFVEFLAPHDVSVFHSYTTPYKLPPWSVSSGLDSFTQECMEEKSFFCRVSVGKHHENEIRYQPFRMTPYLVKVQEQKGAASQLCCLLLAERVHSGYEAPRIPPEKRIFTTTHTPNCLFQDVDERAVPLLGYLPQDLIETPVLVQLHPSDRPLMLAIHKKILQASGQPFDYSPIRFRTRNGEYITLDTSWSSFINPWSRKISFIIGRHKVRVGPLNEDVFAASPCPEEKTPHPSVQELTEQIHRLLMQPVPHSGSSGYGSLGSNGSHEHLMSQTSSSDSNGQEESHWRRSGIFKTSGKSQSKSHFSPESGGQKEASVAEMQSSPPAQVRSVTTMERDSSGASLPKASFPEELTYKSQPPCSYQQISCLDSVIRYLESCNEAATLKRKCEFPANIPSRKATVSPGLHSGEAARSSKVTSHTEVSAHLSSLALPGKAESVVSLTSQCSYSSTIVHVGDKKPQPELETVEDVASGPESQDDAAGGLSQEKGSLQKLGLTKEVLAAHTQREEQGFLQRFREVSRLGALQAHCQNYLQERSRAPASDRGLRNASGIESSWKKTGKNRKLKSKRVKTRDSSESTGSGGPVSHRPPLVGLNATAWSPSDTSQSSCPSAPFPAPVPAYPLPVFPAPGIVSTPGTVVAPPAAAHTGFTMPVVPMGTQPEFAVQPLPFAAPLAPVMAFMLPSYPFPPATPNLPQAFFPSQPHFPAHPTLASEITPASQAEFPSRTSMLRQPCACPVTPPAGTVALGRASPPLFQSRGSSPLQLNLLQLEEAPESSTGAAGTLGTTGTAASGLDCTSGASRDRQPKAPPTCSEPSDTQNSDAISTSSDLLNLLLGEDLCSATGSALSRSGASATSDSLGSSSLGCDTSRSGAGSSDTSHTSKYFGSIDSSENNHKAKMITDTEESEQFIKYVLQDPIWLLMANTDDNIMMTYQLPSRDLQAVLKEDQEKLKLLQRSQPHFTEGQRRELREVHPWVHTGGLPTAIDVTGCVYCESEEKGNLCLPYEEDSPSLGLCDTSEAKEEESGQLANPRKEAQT

Target: cyclic AMP-responsive element-binding protein (CREB) (rat (endogenous in hippocampal CA1 tissue)) (UniProt P15337)
Test: co-IP; lysates of the hippocampal CA1 region of normal adult rats, extracted at ZT02; buffer 50 mM Tris-HCl pH 8.0, 150 mM NaCl, 5 mM EDTA, 0.5% NP-40; pre-cleared with protein A/G-agarose; antibodies against PER1, PER2, CREB or IgG as a control, 4 °C overnight; immunoblot

binding | Substance
binds | PER1 (from UniProt Q8CHI5 1-1293)
binds | Period (PER)2 (from UniProt Q9Z301 1-1257)
